From PubChem BioAssay AID1347423 (Functional Genomics Laboratory (NCATS/FGL), 2020) come the findings set out here.

The campaign covered roughly 52,000 sequences. About 210 (0.4%) were called active.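 The calls were made as follows: active = gene whose silencing raises cell survival under the drug, median off-target-corrected z-score across its silencing RNAs 2 or more; inactive = the rest.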 Some of the results follow.

This assay is described as follows: Resistance to Poly (ADP-Ribose) Polymerase inhibitor: Gene Identification via Genome-wide siRNA Screen. The conditions noted are these: mouse BRCA2 R2336H ES cells, olaparib, CellTiter-Glo viability; stronger effect = higher value. The gist of the method: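 Mouse BRCA2 R2336H ES cells were reverse-transfected with siRNA (20 nM final), treated at 48 h with 500 nM olaparib, and read by CellTiter-Glo after 72 h. Scores: MAD-based z per siRNA, median per gene, seed off-target correction.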
Background: ATP-based viability assays read luminescence as a measure of living cells.
For CCAUGUCUAUUCAAAAAGCTT against Wdr6, the z-score is inactive: 0.546.

On to CCCGCUACAACAACCUGAUTT against Chrnb4, for which the z-score was inactive: -0.641.

Consider “GGACAGACAAAUACAAGAGTT against 4930403O06Rik”, for which the z-score was inactive: 0.856.

With GUACAUGCCCUUUGAACAUTT against Clcn1, the z-score was inactive: -0.975.

For the sequence “GGAAGAAACCUACGUUGAATT against 1700007D05Rik”, the z-score is inactive: 0.717.

With GGAGAAUUUAGAGCUACCATT against Apg10l, the z-score was inactive: 2.02.

Consider “GGGAGAGACCCAAAAAGGGTT against C230050L11”, for which the z-score was inactive: 0.827.

In the case of GGCAGAGAUAACCUUUAAATT against Sphk1, the z-score was inactive: 0.574.

Take GCAGGGAUCUGCUAAGCUATT against Hey1: the z-score was inactive: -0.113.

As for GGAAUGUACUAGACCCGAGTT against Gstm2, the z-score was inactive: 1.13.

Consider GGACGACAGCAAAGGGAAGTT against Tnnc1, for which the z-score is inactive: 2.96.

For GCUACUAUUGUGUUCUGAATT against Drd1a, the z-score was inactive: -0.386.

In the case of CGGCAAAAUUAGCUAUUCATT against Exosc4, the z-score is inactive: -0.934.

Take CGGAGAGAUGGUGUGAACATT against Ik: the z-score is inactive: -3.52.

As to GGAAGAAGUGAUAAAGAGATT against Nts, the z-score was inactive: 0.777.

On to “GGACAGUUGUCAUUGGCAUTT against E330036I19Rik”, for which the z-score is inactive: -0.898.

For CCGUUCACUAAUAAAAGGUTT against BC052040, the z-score is inactive: 2.07.

GGAGAGGAAUCAAGUGGUGTT against Lig1: the z-score is inactive: 0.424.

On to GCCUCAAGUAAAGUGGCUGTT against Furin, for which the z-score is inactive: 0.0509.

Turning to “GGUAUAAAGAACUCUGUCATT against 5730599I05Rik”, the z-score was inactive: -1.08.

In the case of CGAACUAGCAAUGUUUACUTT against Ptpn13, the z-score is inactive: -0.567.

As to CCGGUAAUGAGUUCAAGUGTT against Arsa, the z-score is inactive: 0.348.

As for GCCGAUGUAUGGAGUUUUCTT against Mei1, the z-score is inactive: 0.783.

“GGCACAUAGCCAUACCAGATT against 1110064L07Rik”: the z-score was inactive: 0.729.

As to GGAUUGGCAAGCAGCUAACTT against Dnase2a, the z-score was inactive: 1.44.

On to “GGACACUAGUCGGCUGCUUTT against 1500034E06Rik”, for which the z-score was inactive: 1.12.

For GCCAUUAUGCCGACGUGGATT against Slc38a2, the z-score was inactive: 0.824.

As to GCAUUAGGAAUUCAAUUAGTT against Adamts1, the z-score is inactive: -0.418.

As for GCGACAACAUGCUUAGCACTT against Chi3l1, the z-score is inactive: -0.747.

On to CCCGAAGUAGUCUUUAUCGTT against Pafah1b3, for which the z-score was inactive: 0.796.

With “GGCAGUUUCUUCAGUUCUUTT against 9030408N13Rik”, the z-score is inactive: -2.2.

As for GGCAAAGAACAUCAAGCAATT against Rutbc3, the z-score is inactive: 1.94.

Regarding CGGGUGUUUGAAUGAUUUCTT against Mrps27, the z-score is inactive: 0.0984.

Take CGACCAAAAUCAAAACAGCTT against Defb12: the z-score is inactive: 2.02.

Take GCCACUGUGUGGAAUAAAUTT against Gif: the z-score is inactive: 1.28.

Turning to GCAUAUUGCCUACUUCUUCTT against Olfr982, the z-score is inactive: -0.152.

Take GGUGAGAAGCCUUAUCAUUTT against Klf2: the z-score is inactive: 3.01.

For GGUGCCCACUAACUUAGAATT against Tbx21, the z-score was inactive: 0.288.

On to GCUAAAGAUUGACAAAGCUTT against Uqcrc2, for which the z-score was inactive: 0.381.

For the sequence GGUGAUACACUGUAAUCUGTT against Msra, the z-score is inactive: 0.455.

Turning to GGGCAUCGUUUUCAUCUCATT against Wdr11, the z-score is inactive: 0.349.

Regarding GGAAGUGGCGAGGUUCUAUTT against Folr1, the z-score is inactive: -1.6.

As to GGUUCUGGAAGUGAAGGUGTT against Prg2, the z-score was inactive: -2.23.

Regarding CCCAAGAAUUGGAUUCCAGTT against Lta, the z-score was inactive: 0.88.

Turning to GCUAUCAACAAUCUUCGAATT against Azi1, the z-score was inactive: 0.37.

With GGUGUGGUAUGCUUUCUCCTT against Ddx11, the z-score was inactive: 1.4.

For GCACUGAAGCCUAGCUGUUTT against BC051142, the z-score was inactive: -1.83.

In the case of “GGAAUAUCCUGACUUCUGATT against 4931431C16Rik”, the z-score is inactive: 0.162.

As to GGAGUACAUUGUGAAUGUUTT against Tnr, the z-score is inactive: -0.923.

In the case of CCAUGCGGUUGUUCAAGUATT against Taf7l, the z-score is inactive: 0.862.

Regarding GGACUUCUACUCAGAAUUUTT against Nisch, the z-score was inactive: 1.11.

Take CUUGUCAAGUGAUGAAAUGTT against Xlr: the z-score was inactive: 0.438.

For “CCUAAAAGGAUCUUUCAUGTT against 9030616D13Rik”, the z-score was inactive: 1.47.

As for GCCUGAUGCCUGCAUAAGUTT against Gla, the z-score was inactive: 0.832.

GCUUACUGACUUUGGAUGCTT against Mrgpra4: the z-score is inactive: -1.11.

For the sequence GCUAGUUUGGACCAUACGGTT against Ehhadh, the z-score is inactive: 1.28.

Regarding GGAUCAAGUCUACAGCUAGTT against Olfr225, the z-score was inactive: 0.319.

With GGAGACAUCCUAAAAUUUGTT against Sacy, the z-score is inactive: 0.0222.

In the case of GGUUGUCUAUGAUUCAGGGTT against Creb3l4, the z-score is inactive: 1.11.

With GGAACUAAUGACCAUUUUCTT against Lix1, the z-score was inactive: 0.741.

Take “GGUGUUGAGUUCAAGUCUATT against E330009J07Rik”: the z-score was inactive: -1.2.

Regarding “CCUGGCUAAUGACUAGCUCTT against D730046L02Rik”, the z-score was inactive: -0.501.

Take “GCGAUGGUAUGUUGAAGGATT against 4930432E11Rik”: the z-score is inactive: -0.846.

Consider GCAAAAGUAUUUUGUGUCCTT against Aamp, for which the z-score was inactive: -0.646.

With GGGCACCAGUGGUUAUUAATT against D4st1, the z-score was inactive: 0.629.

For the sequence “GCAGAAGCCUGUGGGAUCUTT against 1700065I17Rik”, the z-score was inactive: -0.638.

For the sequence “GCAGCUUUUUGAGGUGUUATT against A530087D17Rik”, the z-score was inactive: 0.108.

Regarding GGUCAAAGGACAAAGAUAATT against Apg7l, the z-score is inactive: 1.21.

GGAAGUGGAAGUUCUGAAGTT against Tgfb1i4: the z-score is inactive: -0.753.

GGACAUUUUAAUGUGCUCATT against BC036333: the z-score is inactive: -1.

For the sequence “CGAUCAUCAUUGGUUGCGGTT against 1700007K09Rik”, the z-score is inactive: -0.166.

Turning to CCUGGAAGGAUUAUUGCACTT against Bteb1, the z-score was inactive: -0.652.

Consider “GGCUCGUUUAAACAACAUATT against 2310036D22Rik”, for which the z-score was inactive: -0.207.

Take “GCAACGGAGACUUCAGUAATT against 7030401O21Rik”: the z-score is inactive: -1.67.

With “CCAGCAAAUAUCCUAGUAATT against 2700084L06Rik”, the z-score is inactive: -1.09.

For the sequence “GCUUUUCAUGGACACAUUCTT against 2810405F18Rik”, the z-score is inactive: -1.23.

On to GGAAACAUCUUGUUGCUUUTT against Chkb, for which the z-score is inactive: 1.05.

Consider CCUGGUGCUUCGUAAUUACTT against Cyp11a1, for which the z-score is inactive: 1.22.

Regarding GGGAUUCAGAGAUCAUGCATT against Serf1, the z-score was inactive: 0.421.

Take GGACUUUCUGGACUCCCGATT against Wnt10a: the z-score was inactive: 0.999.

Take GCUAUGAUCAUAGUACGAUTT against Adam25: the z-score was inactive: 0.238.

On to GGUCUUCUCAAUAGCGAGGTT against Plce1, for which the z-score was inactive: -0.644.

For GGAGGUUACAAUCCAUGAGTT against Anapc1, the z-score was inactive: -2.36.

Take GGACUUCACAAUCUCUUUCTT against Hck: the z-score is inactive: 0.594.

CCAGAUGACAAUGAGUCAGTT against Ss18: the z-score was inactive: 0.355.

Regarding GGAAGUGCCCAUGAAUCCUTT against Irf6, the z-score was inactive: 0.826.

In the case of GGGUGUGCAUCUUGUUUUCTT against Olfr1312, the z-score was inactive: 0.277.

Turning to GGAAUUAAAGAGGAACUCCTT against Adamts20, the z-score is inactive: 0.87.

For the sequence GGCCUUUACAUGUCCCAGCTT against BC002059, the z-score was inactive: 0.867.

GGGACAAAGCUUGUGAUCGTT against Edg7: the z-score is inactive: -1.76.

On to GGAGAAAUGGGUAAAAACUTT against BC034902, for which the z-score was inactive: 0.104.

As to GCUAACUGCCUUGGGAAGATT against Lyl1, the z-score was inactive: -0.449.

With “GGUGUGCUGAAAUUUCAAATT against E430004N04Rik”, the z-score was inactive: 0.884.

GGCUGACACAAGAUGGCUGTT against Ebpl: the z-score is inactive: -1.42.

With GGGAAGCUGACAAUGGAACTT against Nmb, the z-score was inactive: 0.201.

In the case of GGUGUCCAUGAAAGAGCUCTT against Dlk1, the z-score is inactive: 0.773.

With GGAGCUCAUAGACCAGCUUTT against Apba2bp, the z-score was inactive: -2.02.

Take GCUCCCAGAUGUGAAACAATT against Taf7l: the z-score was inactive: -1.19.

Regarding GGAUUACGGUCACUGCCAUTT against Gabrr2, the z-score was inactive: 1.39.

On to “GGGAUUGAAAAGGUUAACCTT against 4930563D23Rik”, for which the z-score is inactive: 0.828.

In the case of GGAGAGCUGUGUUUGUAACTT against Mllt1, the z-score was inactive: 1.77.

Take GGCUUAUGAUUUCUGAAAATT against Malt1: the z-score is inactive: 0.345.

Regarding GGAACUGGAACACAUGGUUTT against Hars2, the z-score was inactive: -0.944.

For the sequence GGCGGUUUCAAAAGCUUCCTT against Dusp2, the z-score was inactive: -0.62.

On to GGGAUGACUCGAGAUGAUGTT against Hs1bp1, for which the z-score is inactive: -0.306.
